# Values from PubChem BioAssay AID1259405 (NCATS, 2018)
# Assay: 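Silenced genes that increase secreted GFP made by CHO cells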 (primary screen)
# Cell system: Chinese hamster CHO-K1 ovary cells with stable secreted eGFP expression
# Knock-down reagent: single siRNA against mouse genes, 0.8 pmol siRNA per well (2 µl of 400 nM stock)
# Time to read-out: 3 days
# Read-out: 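Percent of the per-plate non-targeting control median for intracellular GFP per well by laser scanning cytometry and for cell viability by ATP luminescence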
# Scale: GFP, % of control: higher = more GFP per well, higher productivity; viability (ATP), % of control: higher = more viable cells (more ATP)
# Rule for the call: 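Called active when intracellular GFP, relative to negative control, is at or above 120%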
# Here is a random part of about 50,000 deposited reagents. Over the whole deposit, about 4,000 (8%) are marked active. 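Mouse siRNA library applied to hamster cells; one well for each siRNA.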 Unmarked entries are inactive.
"GFP, % of control","viability (ATP), % of control",gene symbol,PubChem SID
72.4,74.3,Hps6 (GeneID 20170),SID363540407
49,60,Hps6 (GeneID 20170),SID363542159
138 (active),101,Hps6 (GeneID 20170),SID363567075
53,69.4,Wscd2 (GeneID 320916),SID363550288
26.8,22.2,Wscd2 (GeneID 320916),SID363564797
68.7,74.7,Wscd2 (GeneID 320916),SID363588342
97.6,52.2,Taar7b (GeneID 209517),SID363544758
65.8,113,Taar7b (GeneID 209517),SID363551086
54.7,63.1,Taar7b (GeneID 209517),SID363557635
48.9,70.4,Evi5 (GeneID 14020),SID363540139
68.2,76.8,Evi5 (GeneID 14020),SID363561440
48.3,55.7,Evi5 (GeneID 14020),SID363564476
79.8,64,Pfn4 (GeneID 382562),SID363541492
79.2,52.7,Pfn4 (GeneID 382562),SID363556119
51.3,23.8,Pfn4 (GeneID 382562),SID363566408
107,75.5,Adam25 (GeneID 23793),SID363547517
59.8,75.2,Adam25 (GeneID 23793),SID363558286
102,95.1,Adam25 (GeneID 23793),SID363560044
124 (active),77.3,Or4b13 (GeneID 406186),SID363554199
57.7,45.7,Or4b13 (GeneID 406186),SID363567646
61.9,91.9,Or4b13 (GeneID 406186),SID363585003
61.6,49.5,Set (GeneID 56086),SID363547802
45.5,46.6,Set (GeneID 56086),SID363558571
128 (active),91.3,Set (GeneID 56086),SID363560329
106,104,Rad52 (GeneID 19365),SID363569084
110,77.8,Rad52 (GeneID 19365),SID363583516
72.7,43.6,Kpnb1 (GeneID 16211),SID363570171
142 (active),51.8,Kpnb1 (GeneID 16211),SID363576507
83.2,26.5,Kpnb1 (GeneID 16211),SID363579675
69.8,52.1,Pik3r3 (GeneID 18710),SID363581772
101,73.4,Pik3r3 (GeneID 18710),SID363589266
74.2,78,Gatad1 (GeneID 67210),SID363562163
109,86.6,Gatad1 (GeneID 67210),SID363567301
82.5,62.3,Gatad1 (GeneID 67210),SID363584658
113,86.2,Emc4 (GeneID 68032),SID363543812
132 (active),92.1,Emc4 (GeneID 68032),SID363551548
78.5,78.3,Emc4 (GeneID 68032),SID363559153
34.6,48.8,Krt14 (GeneID 16664),SID363540985
60.2,70.7,Krt14 (GeneID 16664),SID363555612
138 (active),100,Krt14 (GeneID 16664),SID363565901
48,60.7,Rpl31 (GeneID 114641),SID363554007
49.1,35.4,Rpl31 (GeneID 114641),SID363561964
38.1,19.2,Rpl31 (GeneID 114641),SID363565702
107,87.5,Tnn (GeneID 329278),SID363553676
119,122,Tnn (GeneID 329278),SID363561633
91.9,83.8,Tnn (GeneID 329278),SID363565371
66.8,86.6,Or8g52 (GeneID 258165),SID363554786
77.5,50.8,Or8g52 (GeneID 258165),SID363568233
56.1,63.9,Or8g52 (GeneID 258165),SID363586292
69.2,76.7,Ctnna1 (GeneID 12385),SID363572267
76.8,50.5,Ctnna1 (GeneID 12385),SID363574027
63.4,54.7,Ggct (GeneID 110175),SID363542871
83.6,87.8,Ggct (GeneID 110175),SID363546388
74.5,87.3,Ggct (GeneID 110175),SID363548144
63.5,50.8,B230325K18Rik (GeneID 319527),SID363546696
91.5,83.4,B230325K18Rik (GeneID 319527),SID363548452
91.4,90,B230325K18Rik (GeneID 319527),SID363560630
71.2,52.3,Ggta1 (GeneID 14594),SID363545429
75.3,82,Ggta1 (GeneID 14594),SID363548942
50.7,63.7,Ggta1 (GeneID 14594),SID363562748
72.6,77.4,Dnajc5 (GeneID 13002),SID363572539
74.5,63.8,Dnajc5 (GeneID 13002),SID363577819
89.9,83.6,Dnajc5 (GeneID 13002),SID363582043
107,112,Wfdc1 (GeneID 67866),SID363572856
63.4,67.2,Wfdc1 (GeneID 67866),SID363577432
55.9,74.7,Wfdc1 (GeneID 67866),SID363580952
79.1,109,Casp3 (GeneID 12367),SID363574522
59.5,57.3,Casp3 (GeneID 12367),SID363575578
103,76.4,Casp3 (GeneID 12367),SID363580154
88.1,93.4,Ercc4 (GeneID 50505),SID363569998
60.1,72.7,Ercc4 (GeneID 50505),SID363577038
72.7,82.3,Ercc4 (GeneID 50505),SID363578446
85.1,57.8,Tbrg4 (GeneID 21379),SID363556349
120 (active),111,Tbrg4 (GeneID 21379),SID363586799
68.9,86.8,Tbrg4 (GeneID 21379),SID363588907
99.6,80.4,Tctn2 (GeneID 67978),SID363542542
76.9,77.7,Tctn2 (GeneID 67978),SID363552033
55.6,72.2,Tctn2 (GeneID 67978),SID363559638
50.7,26.9,Nwd2 (GeneID 319807),SID363546784
60.1,66.8,Nwd2 (GeneID 319807),SID363548540
85.8,49.4,Nwd2 (GeneID 319807),SID363560718
97.1,67.6,Rest (GeneID 19712),SID363573684
111,74.5,Rest (GeneID 19712),SID363581428
114,108,Rest (GeneID 19712),SID363583892
